Substitutions are numbered along the chain they refer to. This is a selection; strong and weak results do not stand in their true shares. Calls are pooled over several reports, among them a noisy single-well screen. Some of the results follow.
Key:
Conditions in all cases: stereoisomer not certain
[1] = tested on: T1, OR8A1
T1 sequence (whole entry): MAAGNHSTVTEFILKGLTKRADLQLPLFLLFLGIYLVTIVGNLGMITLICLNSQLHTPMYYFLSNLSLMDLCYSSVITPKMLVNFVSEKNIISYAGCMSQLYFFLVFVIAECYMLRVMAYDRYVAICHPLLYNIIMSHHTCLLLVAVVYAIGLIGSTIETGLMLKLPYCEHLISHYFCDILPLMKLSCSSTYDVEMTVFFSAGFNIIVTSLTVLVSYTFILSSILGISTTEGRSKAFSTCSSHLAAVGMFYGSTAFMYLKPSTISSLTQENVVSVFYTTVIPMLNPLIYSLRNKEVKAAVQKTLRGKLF
Summary of the method: (§1)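 Each receptor–molecule pair is labelled responsive or non-responsive (inactive) according to whether the original authors judged the measured signal statistically different from baseline. The data were taken from the main text and supplementary material of published papers and checked for typos and inconsistencies. Assay methods differed by source, with transient luciferase assays in mammalian cell lines being common.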

Chains of the proteins cited; added tags and fusions are not shown. Chains listed by the source or under a name are the forms on record and can include a tag or linker.
OR8B3, as listed by the source: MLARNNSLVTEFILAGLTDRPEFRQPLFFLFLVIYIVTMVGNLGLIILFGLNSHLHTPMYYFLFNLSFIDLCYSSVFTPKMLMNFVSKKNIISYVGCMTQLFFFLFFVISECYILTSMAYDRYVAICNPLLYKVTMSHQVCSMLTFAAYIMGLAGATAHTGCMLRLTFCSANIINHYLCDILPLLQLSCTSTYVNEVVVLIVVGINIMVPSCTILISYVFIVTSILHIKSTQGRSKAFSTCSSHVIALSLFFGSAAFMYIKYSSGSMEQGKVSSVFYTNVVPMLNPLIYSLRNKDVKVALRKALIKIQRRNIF
OR8B4, as listed by the source: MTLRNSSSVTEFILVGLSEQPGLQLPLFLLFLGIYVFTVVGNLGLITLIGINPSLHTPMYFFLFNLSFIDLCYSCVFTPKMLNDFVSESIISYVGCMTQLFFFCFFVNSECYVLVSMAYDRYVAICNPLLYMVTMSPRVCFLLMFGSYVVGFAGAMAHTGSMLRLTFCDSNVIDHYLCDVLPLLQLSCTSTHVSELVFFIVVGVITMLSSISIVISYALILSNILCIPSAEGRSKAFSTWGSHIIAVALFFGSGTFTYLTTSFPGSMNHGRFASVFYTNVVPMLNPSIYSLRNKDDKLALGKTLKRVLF

[2] = target: T2, OR8B12 (Homo sapiens) (UniProt Q8NGG6)
T2 sequence (whole entry): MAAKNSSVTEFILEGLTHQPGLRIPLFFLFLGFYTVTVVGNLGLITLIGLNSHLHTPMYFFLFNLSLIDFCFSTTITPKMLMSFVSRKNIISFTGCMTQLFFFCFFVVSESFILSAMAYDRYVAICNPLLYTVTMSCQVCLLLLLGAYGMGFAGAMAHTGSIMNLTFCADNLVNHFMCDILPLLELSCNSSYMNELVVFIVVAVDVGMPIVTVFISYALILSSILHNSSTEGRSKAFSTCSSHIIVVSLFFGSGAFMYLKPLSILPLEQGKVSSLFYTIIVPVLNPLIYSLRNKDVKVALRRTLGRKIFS
Summary of the method: as §1

[3] = target: T3, OR8B2 (Homo sapiens) (UniProt Q96RD0)
T3 sequence (whole entry): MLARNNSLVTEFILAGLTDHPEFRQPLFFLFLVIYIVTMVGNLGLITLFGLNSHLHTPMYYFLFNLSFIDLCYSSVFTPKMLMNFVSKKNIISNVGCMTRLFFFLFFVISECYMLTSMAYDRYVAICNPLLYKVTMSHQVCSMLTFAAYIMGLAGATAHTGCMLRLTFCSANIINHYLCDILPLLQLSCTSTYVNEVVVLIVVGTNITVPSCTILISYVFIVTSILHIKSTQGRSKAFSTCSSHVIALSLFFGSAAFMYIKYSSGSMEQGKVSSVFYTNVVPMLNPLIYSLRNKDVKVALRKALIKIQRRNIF
Summary of the method: as §1

[4] = tested on: T4, OR8B3
T4 sequence (whole entry): T3 sequence (whole entry) with H20R, T47I, N94Y, R100Q, M114I, T205I, T208M
Summary of the method: as §1

[5] = tested on: T5, OR8B4
T5 sequence (whole entry): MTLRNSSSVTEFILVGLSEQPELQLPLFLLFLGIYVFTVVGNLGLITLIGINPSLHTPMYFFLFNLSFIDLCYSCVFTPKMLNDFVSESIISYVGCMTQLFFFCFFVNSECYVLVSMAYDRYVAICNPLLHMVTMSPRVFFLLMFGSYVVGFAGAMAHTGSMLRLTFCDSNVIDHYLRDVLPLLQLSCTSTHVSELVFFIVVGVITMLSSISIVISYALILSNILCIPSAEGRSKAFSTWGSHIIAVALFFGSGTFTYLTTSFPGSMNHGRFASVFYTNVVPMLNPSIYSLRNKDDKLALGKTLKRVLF
Summary of the method: as §1

[6] = tested on: T6, OR8B4; remark: listed apart in the source
T6 sequence (whole entry): T5 sequence (whole entry) with E22G, H131Y, F140C, R178C
Summary of the method: as §1

[7] = target: T7, OR8B8 (Homo sapiens) (UniProt Q15620)
T7 sequence (whole entry): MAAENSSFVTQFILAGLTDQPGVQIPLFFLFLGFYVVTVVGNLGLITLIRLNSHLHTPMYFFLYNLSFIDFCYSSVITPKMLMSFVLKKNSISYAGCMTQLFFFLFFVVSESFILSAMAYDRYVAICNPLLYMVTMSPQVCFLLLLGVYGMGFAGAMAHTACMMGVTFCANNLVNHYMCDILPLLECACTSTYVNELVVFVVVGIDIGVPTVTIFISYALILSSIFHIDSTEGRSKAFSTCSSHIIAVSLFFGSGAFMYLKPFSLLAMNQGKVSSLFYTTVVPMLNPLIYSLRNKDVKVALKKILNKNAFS
Summary of the method: as §1

[8] = tested on: T8, OR8B8
T8 sequence (whole entry): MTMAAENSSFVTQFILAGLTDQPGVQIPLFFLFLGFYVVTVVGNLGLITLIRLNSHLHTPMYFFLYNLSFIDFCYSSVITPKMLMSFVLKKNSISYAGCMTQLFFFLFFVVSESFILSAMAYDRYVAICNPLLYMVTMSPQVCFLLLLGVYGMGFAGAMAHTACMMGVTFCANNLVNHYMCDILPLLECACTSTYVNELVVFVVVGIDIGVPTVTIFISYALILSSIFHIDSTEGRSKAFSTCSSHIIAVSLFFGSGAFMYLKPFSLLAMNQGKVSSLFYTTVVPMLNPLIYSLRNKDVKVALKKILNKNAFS
Summary of the method: as §1

[9] = target: T9, OR8D1 (Homo sapiens) (UniProt Q8WZ84)
T9 sequence (whole entry): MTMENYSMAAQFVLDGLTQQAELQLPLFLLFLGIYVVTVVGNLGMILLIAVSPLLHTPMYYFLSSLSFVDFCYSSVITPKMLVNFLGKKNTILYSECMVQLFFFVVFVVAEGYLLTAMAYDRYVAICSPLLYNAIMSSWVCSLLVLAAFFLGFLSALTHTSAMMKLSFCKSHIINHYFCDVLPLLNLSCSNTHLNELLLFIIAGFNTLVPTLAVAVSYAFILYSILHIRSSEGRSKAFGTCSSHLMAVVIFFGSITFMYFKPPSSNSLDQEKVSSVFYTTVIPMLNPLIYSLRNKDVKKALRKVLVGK
Summary of the method: as §1

[10] = target: T10, OR8D2 (Homo sapiens) (UniProt Q9GZM6)
T10 sequence (whole entry): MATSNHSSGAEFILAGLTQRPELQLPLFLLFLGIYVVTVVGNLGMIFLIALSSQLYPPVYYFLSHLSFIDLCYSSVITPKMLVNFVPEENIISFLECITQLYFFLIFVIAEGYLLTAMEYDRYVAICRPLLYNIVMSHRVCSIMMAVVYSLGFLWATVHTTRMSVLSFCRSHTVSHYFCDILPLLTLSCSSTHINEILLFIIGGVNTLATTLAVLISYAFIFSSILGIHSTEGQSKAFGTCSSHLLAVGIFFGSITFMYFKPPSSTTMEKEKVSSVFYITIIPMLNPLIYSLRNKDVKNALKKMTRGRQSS
Summary of the method: as §1

[11] = tested on: T11, OR8D4
T11 sequence (whole entry): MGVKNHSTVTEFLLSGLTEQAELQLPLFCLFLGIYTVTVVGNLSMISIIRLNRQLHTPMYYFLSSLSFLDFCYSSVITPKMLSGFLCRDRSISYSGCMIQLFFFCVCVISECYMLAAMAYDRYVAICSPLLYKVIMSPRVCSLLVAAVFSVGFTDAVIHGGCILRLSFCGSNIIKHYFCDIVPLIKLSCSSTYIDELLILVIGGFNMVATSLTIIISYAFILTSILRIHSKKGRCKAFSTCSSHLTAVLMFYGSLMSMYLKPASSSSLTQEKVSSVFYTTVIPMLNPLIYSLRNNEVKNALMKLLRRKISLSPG
Summary of the method: as §1

[12] = target: T12, OR8G1 (Homo sapiens) (UniProt Q15617)
T12 sequence (whole entry): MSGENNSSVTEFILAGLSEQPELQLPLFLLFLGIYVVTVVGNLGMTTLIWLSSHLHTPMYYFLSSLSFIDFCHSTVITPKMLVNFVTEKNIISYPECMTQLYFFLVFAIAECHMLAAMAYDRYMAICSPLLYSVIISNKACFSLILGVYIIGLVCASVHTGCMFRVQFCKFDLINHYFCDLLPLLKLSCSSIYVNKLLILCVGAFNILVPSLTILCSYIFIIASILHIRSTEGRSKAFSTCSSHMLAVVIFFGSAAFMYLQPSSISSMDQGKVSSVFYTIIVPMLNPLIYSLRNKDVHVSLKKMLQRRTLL
Summary of the method: as §1

[13] = target: T13, OR8G5 (Homo sapiens) (UniProt Q8NG78)
T13 sequence (whole entry): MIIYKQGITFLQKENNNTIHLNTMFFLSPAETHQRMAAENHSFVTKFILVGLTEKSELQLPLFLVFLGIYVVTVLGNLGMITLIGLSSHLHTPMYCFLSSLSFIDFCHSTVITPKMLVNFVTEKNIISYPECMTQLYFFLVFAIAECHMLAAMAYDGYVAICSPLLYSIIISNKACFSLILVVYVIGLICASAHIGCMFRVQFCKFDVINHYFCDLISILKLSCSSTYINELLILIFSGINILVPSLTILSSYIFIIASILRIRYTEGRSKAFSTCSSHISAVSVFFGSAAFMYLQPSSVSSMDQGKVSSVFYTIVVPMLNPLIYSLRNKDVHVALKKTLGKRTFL
Summary of the method: as §1

[14] = tested on: T14, OR8G5
T14 sequence (whole entry): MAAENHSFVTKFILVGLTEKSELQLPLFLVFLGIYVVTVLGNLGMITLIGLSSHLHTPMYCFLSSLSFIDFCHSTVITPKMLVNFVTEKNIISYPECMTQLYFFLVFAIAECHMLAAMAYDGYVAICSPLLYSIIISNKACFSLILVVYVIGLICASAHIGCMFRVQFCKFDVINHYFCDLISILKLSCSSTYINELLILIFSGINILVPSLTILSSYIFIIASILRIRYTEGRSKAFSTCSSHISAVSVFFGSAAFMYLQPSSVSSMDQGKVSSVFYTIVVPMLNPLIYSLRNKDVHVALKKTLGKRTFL
Summary of the method: as §1

[15] = target: T15, OR8H1 (Homo sapiens) (UniProt Q8NGG4)
T15 sequence (whole entry): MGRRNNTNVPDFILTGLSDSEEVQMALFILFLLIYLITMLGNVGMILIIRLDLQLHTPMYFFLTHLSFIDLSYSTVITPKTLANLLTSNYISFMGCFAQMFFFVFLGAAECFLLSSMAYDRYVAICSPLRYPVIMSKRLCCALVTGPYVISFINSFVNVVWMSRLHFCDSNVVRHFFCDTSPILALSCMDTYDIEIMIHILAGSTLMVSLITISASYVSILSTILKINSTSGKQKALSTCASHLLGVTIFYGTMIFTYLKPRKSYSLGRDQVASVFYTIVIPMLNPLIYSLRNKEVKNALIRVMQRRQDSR
Summary of the method: as §1

[16] = tested on: T16, OR8H2
T16 sequence (whole entry): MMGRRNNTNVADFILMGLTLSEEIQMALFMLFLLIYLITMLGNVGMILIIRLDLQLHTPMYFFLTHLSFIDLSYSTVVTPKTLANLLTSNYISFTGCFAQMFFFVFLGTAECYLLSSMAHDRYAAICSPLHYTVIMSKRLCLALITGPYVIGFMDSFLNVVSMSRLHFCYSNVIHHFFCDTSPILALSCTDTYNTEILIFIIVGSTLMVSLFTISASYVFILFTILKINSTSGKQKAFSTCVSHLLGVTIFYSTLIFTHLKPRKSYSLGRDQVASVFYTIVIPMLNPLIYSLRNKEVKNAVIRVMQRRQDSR
Summary of the method: as §1

[17] = target: OR8A1 (Homo sapiens) (UniProt Q8NGG7)
Summary of the method: as §1

[18] = target: OR8B4 (Homo sapiens) (UniProt Q96RC9)
Summary of the method: as §1

[19] = target: OR8D4 (Homo sapiens) (UniProt Q8NGM9)
Summary of the method: as §1

[20] = target: OR8H2 (Homo sapiens) (UniProt Q8N162)
Summary of the method: as §1
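Also: active if original authors judged signal statistically different from baseline.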

SMILES	odorant receptor agonist call [1]	odorant receptor agonist call [2]	odorant receptor agonist call [3]	odorant receptor agonist call [4]	odorant receptor agonist call [5]	odorant receptor agonist call [6]	odorant receptor agonist call [7]	odorant receptor agonist call [8]	odorant receptor agonist call [9]	odorant receptor agonist call [10]	odorant receptor agonist call [11]	odorant receptor agonist call [12]	odorant receptor agonist call [13]	odorant receptor agonist call [14]	odorant receptor agonist call [15]	odorant receptor agonist call [16]	odorant receptor agonist call [17]	odorant receptor agonist call [18]	odorant receptor agonist call [19]	odorant receptor agonist call [20]
C=CCc1ccc(OC(C)=O)c(OC)c1	inactive	active	active	active	inactive	inactive	inactive	inactive	inactive	inactive	inactive	inactive	inactive	inactive	inactive	inactive	–	–	–	–
CCCCCOC(C)=O	inactive	inactive	inactive	inactive	inactive	inactive	inactive	inactive	inactive	inactive	active	inactive	inactive	inactive	inactive	inactive	–	–	–	–
CC1CCC(C(C)C)C(O)C1 (centres undefined)	active	inactive	inactive	inactive	inactive	inactive	active	inactive	inactive	inactive	inactive	inactive	inactive	active	inactive	inactive	–	–	–	–
CC(C)C(=O)O	inactive	active	inactive	inactive	inactive	inactive	inactive	inactive	inactive	inactive	inactive	inactive	inactive	inactive	inactive	active	–	–	–	–
CC(=O)OC1CC2CCC1(C)C2(C)C (centres undefined)	inactive	inactive	inactive	inactive	inactive	inactive	inactive	inactive	inactive	inactive	inactive	inactive	inactive	inactive	inactive	inactive	–	–	–	–
CC(=O)OC(C)(C)C1CC=C(C)CC1 (centres undefined)	inactive	inactive	inactive	inactive	inactive	inactive	inactive	inactive	inactive	inactive	inactive	inactive	inactive	inactive	inactive	inactive	–	–	–	–
CC12CCC(C1)C(C)(C)C2=O (centres undefined)	inactive	inactive	inactive	inactive	inactive	inactive	inactive	inactive	inactive	inactive	inactive	inactive	inactive	inactive	inactive	inactive	–	–	–	–
C=CCSCC=C	inactive	inactive	inactive	inactive	inactive	inactive	inactive	inactive	inactive	inactive	inactive	inactive	inactive	inactive	inactive	inactive	–	–	–	–
CC12C=CCC1C1CCC3CC(=O)CCC3(C)C1CC2 (centres undefined)	inactive	inactive	inactive	inactive	inactive	active	inactive	active	–	–	inactive	inactive	inactive	inactive	inactive	active	inactive	inactive	inactive	inactive
CC(C)=CCCC(C)=CC=O	inactive	inactive	inactive	inactive	inactive	inactive	inactive	inactive	inactive	inactive	inactive	inactive	inactive	inactive	inactive	inactive	–	–	–	–
CC(=O)OCC=C(C)CCC=C(C)C	inactive	inactive	active	active	inactive	inactive	inactive	inactive	inactive	inactive	inactive	inactive	inactive	inactive	inactive	inactive	–	–	–	–
O=C1CCCCCCCCCCCCCCO1	inactive	inactive	inactive	inactive	inactive	inactive	inactive	inactive	inactive	inactive	inactive	inactive	inactive	inactive	inactive	inactive	–	–	–	–

Taken from above:
Value for CCCCCOC(C)=O under odorant receptor agonist call [11]: active
Value for C=CCc1ccc(OC(C)=O)c(OC)c1 under odorant receptor agonist call [5]: inactive

Reference: the M2OR odorant receptor database
